Measured values reported in the supplement of paper PMC10849652.
This is one part of the list. Residues, ends and D or L forms follow the SMILES beside them. *: point of attachment. Cbz = O=C(OCc1ccccc1)*

By UniProt entry, the sequences of proteins in these tests, tags left out. Where a name states a change or a piece, a line headed by the entry shows the natural chain unless it says otherwise.
UniProt O95674: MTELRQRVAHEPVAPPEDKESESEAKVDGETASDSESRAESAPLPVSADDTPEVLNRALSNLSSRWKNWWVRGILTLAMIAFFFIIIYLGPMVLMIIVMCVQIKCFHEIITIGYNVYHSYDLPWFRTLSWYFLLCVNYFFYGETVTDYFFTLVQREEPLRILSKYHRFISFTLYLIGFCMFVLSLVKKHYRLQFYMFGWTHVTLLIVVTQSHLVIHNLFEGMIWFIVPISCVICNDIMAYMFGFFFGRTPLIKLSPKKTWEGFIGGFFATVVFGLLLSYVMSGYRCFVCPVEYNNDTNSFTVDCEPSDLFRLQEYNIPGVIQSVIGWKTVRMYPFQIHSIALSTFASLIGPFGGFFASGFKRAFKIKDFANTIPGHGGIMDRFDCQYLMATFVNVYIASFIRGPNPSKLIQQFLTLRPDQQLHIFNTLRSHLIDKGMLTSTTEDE
UniProt O43633: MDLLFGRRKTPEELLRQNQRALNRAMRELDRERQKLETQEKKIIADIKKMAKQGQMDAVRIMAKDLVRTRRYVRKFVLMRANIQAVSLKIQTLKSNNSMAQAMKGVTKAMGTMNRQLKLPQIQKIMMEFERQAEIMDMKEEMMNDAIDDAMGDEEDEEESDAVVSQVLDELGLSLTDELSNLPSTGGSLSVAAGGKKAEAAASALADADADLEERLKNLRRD
UniProt Q96FF9: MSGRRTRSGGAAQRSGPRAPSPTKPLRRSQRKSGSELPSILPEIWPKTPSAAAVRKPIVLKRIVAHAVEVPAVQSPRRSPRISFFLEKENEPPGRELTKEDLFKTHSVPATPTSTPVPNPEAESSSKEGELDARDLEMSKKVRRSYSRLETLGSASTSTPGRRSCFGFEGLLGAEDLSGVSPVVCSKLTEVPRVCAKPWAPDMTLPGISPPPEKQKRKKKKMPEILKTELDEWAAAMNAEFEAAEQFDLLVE
UniProt Q9UFW8: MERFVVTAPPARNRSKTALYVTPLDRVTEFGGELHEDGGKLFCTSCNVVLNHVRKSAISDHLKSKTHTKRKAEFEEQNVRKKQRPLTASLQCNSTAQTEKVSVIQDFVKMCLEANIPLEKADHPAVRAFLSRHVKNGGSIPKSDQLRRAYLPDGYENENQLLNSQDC
UniProt P49454: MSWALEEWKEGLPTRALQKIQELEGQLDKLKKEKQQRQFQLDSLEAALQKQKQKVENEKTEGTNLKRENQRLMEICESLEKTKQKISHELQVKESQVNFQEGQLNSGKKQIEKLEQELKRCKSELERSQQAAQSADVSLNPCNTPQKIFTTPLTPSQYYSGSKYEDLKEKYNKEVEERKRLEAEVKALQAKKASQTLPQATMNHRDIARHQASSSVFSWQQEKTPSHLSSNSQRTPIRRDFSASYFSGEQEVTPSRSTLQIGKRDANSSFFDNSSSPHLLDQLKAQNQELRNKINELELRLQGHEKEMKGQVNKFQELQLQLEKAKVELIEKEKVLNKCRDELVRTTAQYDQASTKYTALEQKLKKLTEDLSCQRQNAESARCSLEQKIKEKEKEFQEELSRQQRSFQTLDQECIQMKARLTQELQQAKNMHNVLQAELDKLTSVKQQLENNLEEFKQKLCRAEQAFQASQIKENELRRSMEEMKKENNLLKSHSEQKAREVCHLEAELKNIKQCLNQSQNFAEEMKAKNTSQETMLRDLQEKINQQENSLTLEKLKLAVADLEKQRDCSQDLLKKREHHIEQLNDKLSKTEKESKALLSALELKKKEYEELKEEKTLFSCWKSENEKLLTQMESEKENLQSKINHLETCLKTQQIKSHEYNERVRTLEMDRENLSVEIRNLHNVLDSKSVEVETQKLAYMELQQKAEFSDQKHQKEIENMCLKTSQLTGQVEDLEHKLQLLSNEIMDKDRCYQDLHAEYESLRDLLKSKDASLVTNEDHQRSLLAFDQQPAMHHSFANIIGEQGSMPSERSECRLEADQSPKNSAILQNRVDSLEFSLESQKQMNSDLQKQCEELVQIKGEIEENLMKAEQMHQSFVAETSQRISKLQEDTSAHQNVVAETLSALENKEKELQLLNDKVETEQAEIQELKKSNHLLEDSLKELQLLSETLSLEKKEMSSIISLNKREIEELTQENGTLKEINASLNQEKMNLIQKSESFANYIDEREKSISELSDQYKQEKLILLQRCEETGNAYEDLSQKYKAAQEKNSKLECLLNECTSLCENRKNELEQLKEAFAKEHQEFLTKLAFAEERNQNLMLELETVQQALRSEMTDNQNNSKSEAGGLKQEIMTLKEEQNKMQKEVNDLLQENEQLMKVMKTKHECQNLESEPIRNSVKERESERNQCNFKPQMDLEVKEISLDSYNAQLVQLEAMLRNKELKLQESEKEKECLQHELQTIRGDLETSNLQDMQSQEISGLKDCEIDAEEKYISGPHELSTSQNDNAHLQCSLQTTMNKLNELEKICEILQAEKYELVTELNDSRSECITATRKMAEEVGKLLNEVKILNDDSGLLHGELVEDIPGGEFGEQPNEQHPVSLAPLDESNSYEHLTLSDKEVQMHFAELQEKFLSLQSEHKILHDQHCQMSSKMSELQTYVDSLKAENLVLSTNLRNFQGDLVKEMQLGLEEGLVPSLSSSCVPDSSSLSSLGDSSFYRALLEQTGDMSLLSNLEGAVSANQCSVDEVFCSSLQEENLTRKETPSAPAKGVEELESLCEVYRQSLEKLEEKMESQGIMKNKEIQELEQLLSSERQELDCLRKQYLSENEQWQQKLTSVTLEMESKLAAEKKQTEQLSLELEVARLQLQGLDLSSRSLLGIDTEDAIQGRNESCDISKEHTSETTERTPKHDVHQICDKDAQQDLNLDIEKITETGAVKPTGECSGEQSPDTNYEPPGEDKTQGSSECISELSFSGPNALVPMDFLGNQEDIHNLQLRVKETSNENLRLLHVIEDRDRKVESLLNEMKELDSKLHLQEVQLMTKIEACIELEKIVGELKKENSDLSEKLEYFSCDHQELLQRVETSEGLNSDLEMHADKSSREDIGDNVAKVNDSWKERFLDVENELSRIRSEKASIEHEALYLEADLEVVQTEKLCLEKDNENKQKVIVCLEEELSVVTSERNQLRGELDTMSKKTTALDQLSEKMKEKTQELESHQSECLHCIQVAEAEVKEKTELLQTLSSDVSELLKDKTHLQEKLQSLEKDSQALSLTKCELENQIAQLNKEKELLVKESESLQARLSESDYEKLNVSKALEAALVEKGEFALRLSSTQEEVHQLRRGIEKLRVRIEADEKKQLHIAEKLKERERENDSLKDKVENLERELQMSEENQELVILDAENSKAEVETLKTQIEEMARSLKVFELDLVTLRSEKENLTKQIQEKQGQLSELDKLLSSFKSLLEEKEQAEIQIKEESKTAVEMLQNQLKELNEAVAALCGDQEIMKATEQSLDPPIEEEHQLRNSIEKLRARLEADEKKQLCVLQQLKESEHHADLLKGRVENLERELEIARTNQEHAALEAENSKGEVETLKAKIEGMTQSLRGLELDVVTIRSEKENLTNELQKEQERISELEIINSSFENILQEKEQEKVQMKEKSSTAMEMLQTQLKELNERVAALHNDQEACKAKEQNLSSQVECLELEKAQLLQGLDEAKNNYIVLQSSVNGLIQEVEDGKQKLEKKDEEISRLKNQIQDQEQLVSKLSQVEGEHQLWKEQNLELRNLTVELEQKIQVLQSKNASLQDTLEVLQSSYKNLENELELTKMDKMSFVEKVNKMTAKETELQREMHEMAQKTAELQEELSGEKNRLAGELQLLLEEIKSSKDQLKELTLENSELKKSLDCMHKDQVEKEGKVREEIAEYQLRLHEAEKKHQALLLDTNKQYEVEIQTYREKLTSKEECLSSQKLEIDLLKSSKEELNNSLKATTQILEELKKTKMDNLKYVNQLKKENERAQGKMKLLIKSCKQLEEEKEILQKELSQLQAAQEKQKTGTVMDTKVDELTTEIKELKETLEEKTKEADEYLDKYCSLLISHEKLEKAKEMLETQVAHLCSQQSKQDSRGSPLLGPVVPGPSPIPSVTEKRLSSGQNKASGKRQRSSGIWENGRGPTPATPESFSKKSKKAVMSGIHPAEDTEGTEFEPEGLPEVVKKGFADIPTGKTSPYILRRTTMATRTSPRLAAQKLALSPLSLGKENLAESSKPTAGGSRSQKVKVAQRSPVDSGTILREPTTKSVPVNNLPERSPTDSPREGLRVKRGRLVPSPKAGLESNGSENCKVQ
UniProt Q5SW79: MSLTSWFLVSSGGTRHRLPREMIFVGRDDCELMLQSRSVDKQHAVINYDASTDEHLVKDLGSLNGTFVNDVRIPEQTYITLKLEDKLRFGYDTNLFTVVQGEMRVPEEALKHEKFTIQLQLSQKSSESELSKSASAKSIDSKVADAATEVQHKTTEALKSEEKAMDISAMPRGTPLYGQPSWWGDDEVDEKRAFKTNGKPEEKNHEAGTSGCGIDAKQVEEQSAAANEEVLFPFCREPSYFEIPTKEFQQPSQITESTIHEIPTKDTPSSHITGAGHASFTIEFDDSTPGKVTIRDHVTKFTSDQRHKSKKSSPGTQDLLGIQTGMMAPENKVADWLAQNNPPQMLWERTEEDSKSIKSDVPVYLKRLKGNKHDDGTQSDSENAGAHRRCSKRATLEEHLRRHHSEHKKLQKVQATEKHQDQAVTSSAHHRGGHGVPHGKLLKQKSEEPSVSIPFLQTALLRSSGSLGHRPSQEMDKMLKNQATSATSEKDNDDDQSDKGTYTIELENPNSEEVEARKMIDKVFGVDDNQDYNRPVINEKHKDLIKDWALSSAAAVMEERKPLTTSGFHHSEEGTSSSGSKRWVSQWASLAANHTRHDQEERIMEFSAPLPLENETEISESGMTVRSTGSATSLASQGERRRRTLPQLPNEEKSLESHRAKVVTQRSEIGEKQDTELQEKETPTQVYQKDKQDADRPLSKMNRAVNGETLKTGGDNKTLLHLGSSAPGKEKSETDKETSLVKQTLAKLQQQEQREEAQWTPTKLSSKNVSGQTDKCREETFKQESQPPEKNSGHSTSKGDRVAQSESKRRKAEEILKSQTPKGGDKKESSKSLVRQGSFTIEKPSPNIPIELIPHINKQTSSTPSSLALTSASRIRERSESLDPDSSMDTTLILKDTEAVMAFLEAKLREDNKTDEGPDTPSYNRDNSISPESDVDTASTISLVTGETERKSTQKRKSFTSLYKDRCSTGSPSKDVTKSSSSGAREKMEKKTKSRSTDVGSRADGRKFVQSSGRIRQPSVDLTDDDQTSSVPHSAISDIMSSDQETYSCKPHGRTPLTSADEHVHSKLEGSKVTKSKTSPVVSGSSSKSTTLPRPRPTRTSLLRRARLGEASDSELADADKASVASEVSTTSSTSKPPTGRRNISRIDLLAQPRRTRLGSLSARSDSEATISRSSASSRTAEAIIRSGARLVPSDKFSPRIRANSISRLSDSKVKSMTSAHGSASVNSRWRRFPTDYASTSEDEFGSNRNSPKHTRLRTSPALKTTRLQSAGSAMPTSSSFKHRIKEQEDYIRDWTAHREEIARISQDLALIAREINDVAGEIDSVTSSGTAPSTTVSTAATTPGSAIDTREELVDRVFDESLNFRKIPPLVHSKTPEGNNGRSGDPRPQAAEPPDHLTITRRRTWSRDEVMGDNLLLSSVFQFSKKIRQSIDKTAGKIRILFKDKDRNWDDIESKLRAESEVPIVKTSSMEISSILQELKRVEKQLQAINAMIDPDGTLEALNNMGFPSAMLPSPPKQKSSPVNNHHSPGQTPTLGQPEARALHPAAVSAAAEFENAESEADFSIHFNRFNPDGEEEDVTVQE
UniProt Q8TAP6: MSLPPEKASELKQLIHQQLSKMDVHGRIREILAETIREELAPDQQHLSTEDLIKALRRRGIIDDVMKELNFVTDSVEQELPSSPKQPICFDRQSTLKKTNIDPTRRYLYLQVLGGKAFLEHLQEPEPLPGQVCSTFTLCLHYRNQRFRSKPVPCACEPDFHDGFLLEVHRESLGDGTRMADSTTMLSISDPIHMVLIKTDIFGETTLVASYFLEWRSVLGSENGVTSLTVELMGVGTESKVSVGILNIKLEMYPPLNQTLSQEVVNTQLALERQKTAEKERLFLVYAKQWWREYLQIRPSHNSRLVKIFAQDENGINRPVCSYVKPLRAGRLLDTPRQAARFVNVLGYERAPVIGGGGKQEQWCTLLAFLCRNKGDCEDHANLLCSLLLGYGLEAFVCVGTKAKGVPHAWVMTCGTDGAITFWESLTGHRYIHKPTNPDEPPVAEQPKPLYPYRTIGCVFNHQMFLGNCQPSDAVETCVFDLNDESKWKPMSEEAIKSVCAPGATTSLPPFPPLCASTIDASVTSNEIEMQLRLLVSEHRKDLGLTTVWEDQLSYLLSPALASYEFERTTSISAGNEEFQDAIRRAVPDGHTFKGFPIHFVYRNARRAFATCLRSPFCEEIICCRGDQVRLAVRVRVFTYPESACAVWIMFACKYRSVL

Legend:
Assay in all cases: log2 fold change, soluble protein after heating vs DMSO (PISA); higher = thermal stabilisation; K562 cells, 10 uM, 30 min; active = over 0.2 and 3.5 SD of the protein, either way, in both replicates (recomputed)
erlotinib = compound: C#Cc1cccc(Nc2ncnc3cc(OCCOC)c(OCCOC)cc23)c1 [erlotinib]
Summary of the method: (§1)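 Quantification of soluble protein used TMTpro 16plex LC-MS/MS, with channel sums equalised. Samples were the supernatant after 21,000xg for 90 min of pooled aliquots from K562 cells (2×10^6 cells/mL) treated with 10 μM compound for 30 min, heated for 3 min over 48°C-58°C, and extracted in PBS with 0.5% NP-40 at 4°C. Values, from duplicates, describe thermal stability against control samples on a log2 fold-change scale.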

[1] = compound: C/C(=N\NC(=O)C1=CC(=CC=C1)S(=O)(=O)N2CCOCC2)/C3=C(C=CC(=C3)Cl)O
Summary of the method: as §1

[2] = compound: C1=CC(=C(C=C1Cl)C2=NC3=NC=CN=C3C(=N2)NC4=CC=NC=C4)F
Summary of the method: as §1

[3] = compound: C1=CC(=CC=C1C2=NC3=C(N2)C=C(C=C3)C(=O)N)OC4=CC=C(C=C4)Cl
Summary of the method: as §1

[4] = compound: C1=CC2=C(C=CC(=C2)/C=C\3/C(=O)NC(=NCC4=CC=CS4)S3)N=C1
Summary of the method: as §1

[5] = compound: C1=CC2=NC=CN=C2C=C1/C=C/3\C(=O)NC(=O)S3
Summary of the method: as §1

[6] = compound: C1=CC=C(C=C1)C2=NC(=C(N2)C3=CC=NC=C3)C4=CC(=C(C=C4)Cl)O
Summary of the method: as §1

[7] = compound: C1=CC=C2C(=C1)C3=NNC4=CC=CC(=C43)C2=O
Summary of the method: as §1

[8] = compound: C1CCN(C1)C(=O)NC2=CC=CC(=C2)NC3=NC=C(C(=N3)NCCC4=CN=CN4)Br
Summary of the method: as §1

[9] = compound: C1CN(CCC1(CC2=CC=C(C=C2)Cl)N)C3=NC=NC4=C3C=CN4
Summary of the method: as §1

IRAK-1-4 Inhibitor I = compound: C1COCCN1CCN2C3=CC=CC=C3N=C2NC(=O)C4=CC(=CC=C4)[N+](=O)[O-] [IRAK-1-4 Inhibitor I]
Summary of the method: as §1

ibrutinib = compound: C=CC(=O)N1CCC[C@@H](n2nc(-c3ccc(Oc4ccccc4)cc3)c3c(N)ncnc32)C1 [ibrutinib]
Summary of the method: as §1

[10] = compound: CC(=O)c1cnc2ccc(-c3cc(Cl)c(O)c(Cl)c3)nc2c1N[C@H]1CC[C@H](CN(C)C)CC1
Summary of the method: as §1

ralimetinib = compound: CC(C)(C)Cn1c(N)nc2ccc(-c3[nH]c(C(C)(C)C)nc3-c3ccc(F)cc3)nc21 [ralimetinib]
Summary of the method: as §1

[11] = compound: CC(C)(O)CC(=O)NCCn1ccc2ncnc(Nc3ccc(Oc4cccc(C(F)(F)F)c4)c(Cl)c3)c21
Summary of the method: as §1

[12] = compound: CC(C)C1=C2N=C(C=C(N2N=C1)NCC3=CC=CC=C3)NCCCCCCN
Summary of the method: as §1

[13] = compound: CC(C)C[C@@H](C=O)NC(=O)[C@H](CC(C)C)NC(=O)[C@H](CC(C)C)NC(=O)OCc1ccccc1
Summary of the method: as §1

pinometostat = compound: CC(C)N(C[C@H]1O[C@@H](n2cnc3c(N)ncnc32)[C@H](O)[C@@H]1O)[C@H]1C[C@@H](CCc2nc3cc(C(C)(C)C)ccc3[nH]2)C1 [pinometostat]
Summary of the method: as §1

[14] = compound: CC1=C(C(CC(=O)N1)C2=CC=C(C=C2)C(F)(F)F)C(=O)NC3=C(C=C4C(=C3)C=NN4)F
Summary of the method: as §1

[15] = compound: CC1=C(C2=C(C=C1)C(=O)C3=CC=CC=C3N2CCCN)C
Summary of the method: as §1

Measured: log2 fold change

CENPO (UniProt Q9BU64)
inactive: erlotinib -0.048 | [1] -0.07 | [2] 0.139 | [3] 0.104 | [4] -0.089 | [5] -0.098 | [6] 0.055 | [7] -0.04 | [8] -0.025 | [9] 0.303 | IRAK-1-4 Inhibitor I -0.029 | ibrutinib 0.079 | [10] 0.041 | ralimetinib -0.044 | [11] -0.104 | [12] 0.131 | [13] -0.162 | pinometostat 0.077 | [14] 0.111 | [15] 0.382

CDS2 (UniProt O95674)
inactive: erlotinib -0.012 | [1] -0.086 | [2] -0.028 | [3] 0.029 | [4] 0.106 | [5] 0.059 | [6] -0.059 | [7] 0.024 | [8] -0.026 | [9] 0.009 | IRAK-1-4 Inhibitor I -0.008 | ibrutinib 0.049 | [10] -0.005 | ralimetinib -0.014 | [11] -0.003 | [12] 0.015 | [13] 0.061 | pinometostat 0.037 | [14] 0.028 | [15] 0.021

CHMP2B (UniProt Q9UQN3)
inactive: erlotinib -0.004 | [1] 0.007 | [2] 0.078 | [3] 0.024 | [4] -0.014 | [5] 0.028 | [6] 0.026 | [7] -0.018 | [8] -0.026 | [9] -0.001 | IRAK-1-4 Inhibitor I 0.052 | ibrutinib 0.004 | [10] 0.013 | ralimetinib -0.019 | [11] 0.036 | [12] -0.058 | [13] -0.032 | pinometostat -0.005 | [14] 0.033 | [15] 0.04

CHMP2A (UniProt O43633)
inactive: erlotinib 0.008 | [1] 0.03 | [2] 0.035 | [3] 0.009 | [4] -0.011 | [5] 0.016 | [6] -0.05 | [7] 0.006 | [8] -0.028 | [9] 0.025 | IRAK-1-4 Inhibitor I 0.041 | ibrutinib -0.006 | [10] -0.003 | ralimetinib -0.093 | [11] -0.041 | [12] -0.024 | [13] -0.02 | pinometostat -0.03 | [14] -0.004 | [15] 0.036

CDCA5 (UniProt Q96FF9)
inactive: erlotinib -0.058 | [1] 0.03 | [2] -0.045 | [3] 0.047 | [4] -0.072 | [5] 0.073 | [6] 0.044 | [7] -0.068 | [8] -0.071 | [9] -0.054 | IRAK-1-4 Inhibitor I 0.256 | ibrutinib 0.01 | [10] -0.141 | ralimetinib 0.016 | [11] 0.089 | [12] -0.092 | [13] 0.079 | pinometostat -0.147 | [14] 0.045 | [15] 0.05

Taken from the listing (4 entries):
CENPO (UniProt Q9BU64)
inactive: erlotinib -0.048 | [1] -0.07 | [2] 0.139 | [3] 0.104 | [4] -0.089 | [5] -0.098 | [6] 0.055 | [7] -0.04 | [8] -0.025 | [9] 0.303 | IRAK-1-4 Inhibitor I -0.029 | ibrutinib 0.079 | [10] 0.041 | ralimetinib -0.044 | [11] -0.104 | [12] 0.131 | [13] -0.162 | pinometostat 0.077 | [14] 0.111 | [15] 0.382

CDS2 (UniProt O95674)
inactive: erlotinib -0.012 | [1] -0.086 | [2] -0.028 | [3] 0.029 | [4] 0.106 | [5] 0.059 | [6] -0.059 | [7] 0.024 | [8] -0.026 | [9] 0.009 | IRAK-1-4 Inhibitor I -0.008 | ibrutinib 0.049 | [10] -0.005 | ralimetinib -0.014 | [11] -0.003 | [12] 0.015 | [13] 0.061 | pinometostat 0.037 | [14] 0.028 | [15] 0.021

CHMP2B (UniProt Q9UQN3)
inactive: erlotinib -0.004 | [1] 0.007 | [2] 0.078 | [3] 0.024 | [4] -0.014 | [5] 0.028 | [6] 0.026 | [7] -0.018 | [8] -0.026 | [9] -0.001 | IRAK-1-4 Inhibitor I 0.052 | ibrutinib 0.004 | [10] 0.013 | ralimetinib -0.019 | [11] 0.036 | [12] -0.058 | [13] -0.032 | pinometostat -0.005 | [14] 0.033 | [15] 0.04

CHMP2A (UniProt O43633)
inactive: erlotinib 0.008 | [1] 0.03 | [2] 0.035 | [3] 0.009 | [4] -0.011 | [5] 0.016 | [6] -0.05 | [7] 0.006 | [8] -0.028 | [9] 0.025 | IRAK-1-4 Inhibitor I 0.041 | ibrutinib -0.006 | [10] -0.003 | ralimetinib -0.093 | [11] -0.041 | [12] -0.024 | [13] -0.02 | pinometostat -0.03 | [14] -0.004 | [15] 0.036

Remaining list, next part

CHAF1B (UniProt Q13112)
inactive: erlotinib -0.014 | [1] -0.003 | [2] -0.009 | [3] 0.022 | [4] 0.042 | [5] 0.009 | [6] -0.032 | [7] -0.024 | [8] 0.017 | [9] 0.041 | IRAK-1-4 Inhibitor I 0.052 | ibrutinib 0.019 | [10] 0.011 | ralimetinib -0.07 | [11] 0.002 | [12] 0.089 | [13] 0.007 | pinometostat -0.017 | [14] 0.023 | [15] 0.021

CGGBP1 (UniProt Q9UFW8)
inactive: erlotinib 0.018 | [1] -0.013 | [2] -0.031 | [3] -0.032 | [4] -0.024 | [5] 0.016 | [6] 0.014 | [7] 0 | [8] -0.043 | [9] 0.005 | IRAK-1-4 Inhibitor I 0.03 | ibrutinib -0.012 | [10] 0.003 | ralimetinib 0.063 | [11] -0.007 | [12] 0.052 | [13] 0.014 | pinometostat 0.006 | [14] 0.044 | [15] 0.082

CFAP298 (UniProt P57076)
inactive: erlotinib 0.141 | [1] -0.041 | [2] -0.055 | [3] -0.147 | [4] 0.073 | [5] 0.011 | [6] 0.057 | [7] 0.049 | [8] 0.077 | [9] -0.303 | IRAK-1-4 Inhibitor I -0.082 | ibrutinib -0.084 | [10] -0.072 | ralimetinib 0.205 | [11] -0.098 | [12] -0.277 | [13] 0.218 | pinometostat 0.404 | [14] -0.145 | [15] -0.023

CHID1 (UniProt Q9BWS9)
inactive: erlotinib -0.092 | [1] -0.042 | [2] -0.017 | [3] -0.014 | [4] -0.003 | [5] 0.005 | [6] 0.024 | [7] -0.003 | [8] 0.001 | [9] -0.065 | IRAK-1-4 Inhibitor I -0.078 | ibrutinib -0.044 | [10] 0.092 | ralimetinib 0.107 | [11] 0.006 | [12] -0.045 | [13] 0.011 | pinometostat 0.072 | [14] 0.055 | [15] -0.023

CENPF (UniProt P49454)
inactive: erlotinib -0.058 | [1] -0.019 | [2] -0.107 | [3] 0.018 | [4] -0.089 | [5] 0.035 | [6] -0.061 | [7] -0.048 | [8] -0.083 | [9] -0.035 | IRAK-1-4 Inhibitor I -0.042 | ibrutinib 0.007 | [10] 0.013 | ralimetinib 0.1 | [11] 0.101 | [12] 0.024 | [13] 0.133 | pinometostat 0.055 | [14] -0.011 | [15] 0

CDYL (UniProt Q9Y232)
inactive: erlotinib 0.003 | [1] 0.025 | [2] -0.032 | [3] 0.006 | [4] 0.004 | [5] 0.087 | [6] 0.003 | [7] -0.047 | [8] -0.001 | [9] 0.057 | IRAK-1-4 Inhibitor I 0.014 | ibrutinib -0.04 | [10] -0.106 | ralimetinib 0.059 | [11] 0.01 | [12] 0.05 | [13] -0.003 | pinometostat -0.081 | [14] 0.018 | [15] -0.093

CEP170 (UniProt Q5SW79)
inactive: erlotinib 0.007 | [1] -0.015 | [2] -0.192 | [3] 0.027 | [4] 0 | [5] -0.257 | [6] -0.028 | [7] -0.111 | [8] 0.055 | [9] 0.006 | IRAK-1-4 Inhibitor I -0.063 | ibrutinib 0.038 | [10] -0.274 | ralimetinib 0.108 | [11] 0.017 | [12] -0.253 | [13] 0.015 | pinometostat 0.237 | [14] 0.013 | [15] -0.038

CDV3 (UniProt Q9UKY7)
inactive: erlotinib -0.006 | [1] 0.01 | [2] 0.058 | [3] -0.022 | [4] -0.04 | [5] 0.029 | [6] 0.003 | [7] 0.008 | [8] 0.008 | [9] 0.063 | IRAK-1-4 Inhibitor I -0.024 | ibrutinib -0.01 | [10] 0.002 | ralimetinib -0.021 | [11] -0.02 | [12] 0.063 | [13] -0.03 | pinometostat -0.126 | [14] 0.003 | [15] 0.003

CFAP20 (UniProt Q9Y6A4)
inactive: erlotinib -0.003 | [1] -0.164 | [2] -0.145 | [3] 0.069 | [4] 0.001 | [5] 0.031 | [6] 0.005 | [7] -0.013 | [8] -0.012 | [9] -0.127 | IRAK-1-4 Inhibitor I -0.085 | ibrutinib 0.002 | [10] -0.011 | ralimetinib 0.039 | [11] 0.05 | [12] -0.055 | [13] 0.091 | pinometostat 0.208 | [14] -0.025 | [15] -0.171

CEP76 (UniProt Q8TAP6)
inactive: erlotinib -0.016 | [1] -0.005 | [2] -0.013 | [3] 0.021 | [4] 0.087 | [5] -0.005 | [6] -0.012 | [7] -0.011 | [8] 0.043 | [9] 0.116 | IRAK-1-4 Inhibitor I -0.003 | ibrutinib 0.025 | [10] -0.046 | ralimetinib -0.027 | [11] 0.06 | [12] 0.019 | [13] 0.022 | pinometostat -0.027 | [14] 0.052 | [15] -0.024
